{"source": "PubChem BioAssay AID248", "about": "(DTP/NCI, 2004)", "system": "L1210 leukemia ip in BDF1 mice, survival T/C", "test": "NCI In Vivo Anticancer Drug Screen. Data for tumor model L1210 Leukemia (intraperitoneal) in B6D2F1 (BDF1) mice", "settings": "higher T/C = longer survival", "key": {"[1]": {"settings": "T/C endpoint: mean survival time, dose: 400.0 mg/kg/injection, schedule: Q04DX003 (ip), vehicle: saline with Tween-80"}}, "note": "The list does not hold the whole screen: it is rich in T/C values a quarter to a half above the control, in often repeated tests (any T/C) and in doses without a T/C. Other doses and runs of a compound stand elsewhere. T/C gives the treated animals as a percentage of the vehicle group. Some entries give survivors of the animals treated and no T/C: the source holds a T/C of zero for them, seemingly a mark for toxic or unscored doses. Some survivor counts are full or nearly so, which does not show that the dose was tolerated: survival well below the control is almost never listed, so the zero probably covers shortened survival too. Counts of survivors are from the toxicity check (mostly the fifth day) where no day follows; animals may have died later. Schedules are NCI's codes, taken here to give the interval after Q, in days (D) or hours (H), and the number of doses after X. Some schedule codes hold Z or #, which are not explained here. For survival time, the PubChem record calls one and a half times the control and up active, and a quarter to a half above the control has no call in these data; cut-offs in other NCI protocols can differ. Some T/C values carry the count of animals alive at the toxicity check (mostly the fifth day); without a count, all were alive then."}
{"smiles": "COC(COC(N)=O)C1=C(N2CC2)C(=O)C(C)=C(N2CC2)C1=O", "note": "(configuration not stated)", "values": [{"measurement": "T/C", "setting": "T/C endpoint: mean survival time, dose: 0.12 mg/kg/injection, schedule: Q01DX009 (ip), vehicle: saline", "value": "137 % of control"}, {"measurement": "T/C", "setting": "T/C endpoint: mean survival time, dose: 0.25 mg/kg/injection, schedule: Q01DX009 (ip), vehicle: saline", "value": "146 % of control"}, {"measurement": "T/C", "setting": "T/C endpoint: mean survival time, dose: 0.5 mg/kg/injection, schedule: Q01DX001 (ip), vehicle: saline with Tween-80", "value": "145 % of control"}, {"measurement": "T/C", "setting": "T/C endpoint: mean survival time, dose: 0.5 mg/kg/injection, schedule: Q01DX001 (ip), vehicle: saline", "value": "140 % of control"}, {"measurement": "survivor count", "setting": "T/C endpoint: mean survival time, dose: 0.5 mg/kg/injection, schedule: Q01DX009 (ip), vehicle: Klucel (hydroxypropylcellulose) (HPC)", "value": "3 of 10"}, {"measurement": "survivor count", "setting": "T/C endpoint: mean survival time, dose: 1.0 mg/kg/injection, schedule: Q01DX009 (ip), vehicle: Klucel (hydroxypropylcellulose) (HPC)", "value": "5 of 10"}, {"measurement": "T/C", "setting": "T/C endpoint: mean survival time, dose: 1.0 mg/kg/injection, schedule: Q04DX003 (ip), vehicle: Klucel (hydroxypropylcellulose) (HPC)", "value": "145 % of control"}, {"measurement": "survivor count", "setting": "T/C endpoint: mean survival time, dose: 2.0 mg/kg/injection, schedule: Q01DX009 (ip), vehicle: saline", "value": "9 of 10"}, {"measurement": "survivor count", "setting": "T/C endpoint: mean survival time, dose: 2.0 mg/kg/injection, schedule: Q01DX Z (ip), vehicle: saline", "value": "6 of 6"}, {"measurement": "survivor count", "setting": "T/C endpoint: mean survival time, dose: 4.0 mg/kg/injection, schedule: Q01DX001 (ip), vehicle: saline", "value": "5 of 10"}, {"measurement": "survivor count", "setting": "T/C endpoint: mean survival time, dose: 4.0 mg/kg/injection, schedule: Q01DX009 (ip), vehicle: Klucel (hydroxypropylcellulose) (HPC)", "value": "10 of 10"}, {"measurement": "survivor count", "setting": "T/C endpoint: mean survival time, dose: 4.0 mg/kg/injection, schedule: Q04DX003 (ip), vehicle: Klucel (hydroxypropylcellulose) (HPC)", "value": "5 of 10"}, {"measurement": "survivor count", "setting": "T/C endpoint: mean survival time, dose: 4.0 mg/kg/injection, schedule: Q04DX003 (ip), vehicle: saline", "value": "7 of 10"}, {"measurement": "survivor count", "setting": "T/C endpoint: mean survival time, dose: 4.0 mg/kg/injection, schedule: Q08DX002 (ip), vehicle: saline", "value": "8 of 10"}, {"measurement": "survivor count", "setting": "T/C endpoint: mean survival time, dose: 8.0 mg/kg/injection, schedule: Q01DX001 (ip), vehicle: saline with Tween-80", "value": "10 of 10"}, {"measurement": "survivor count", "setting": "T/C endpoint: mean survival time, dose: 8.0 mg/kg/injection, schedule: Q01DX001 (ip), vehicle: saline", "value": "9 of 10"}, {"measurement": "survivor count", "setting": "T/C endpoint: mean survival time, dose: 8.0 mg/kg/injection, schedule: Q04DX003 (ip), vehicle: Klucel (hydroxypropylcellulose) (HPC)", "value": "8 of 10"}, {"measurement": "survivor count", "setting": "T/C endpoint: mean survival time, dose: 8.0 mg/kg/injection, schedule: Q04DX003 (ip), vehicle: saline", "value": "10 of 10"}, {"measurement": "survivor count", "setting": "T/C endpoint: mean survival time, dose: 8.0 mg/kg/injection, schedule: Q08DX002 (ip), vehicle: saline", "value": "10 of 10"}, {"measurement": "T/C", "setting": "T/C endpoint: median survival time, dose: 4.0 mg/kg/injection, schedule: Q01DX001 (ip), vehicle: saline, evaluated on day 8", "value": "145 % of control"}, {"measurement": "T/C", "setting": "T/C endpoint: median survival time, dose: 4.0 mg/kg/injection, schedule: Q01DX001 (ip), vehicle: saline, evaluated on day 30", "value": "145 % of control [7 of 8 alive]"}]}
{"smiles": "CCN(CC)CCN1CC(=O)Nc2cc(Cl)ccc21", "values": [{"measurement": "survivor count", "setting": "T/C endpoint: mean survival time, dose: 200.0 mg/kg/injection, schedule: Q04DX003 (ip), vehicle: saline", "value": "2 of 6"}, {"measurement": "survivor count", "setting": "T/C endpoint: mean survival time, dose: 400.0 mg/kg/injection, schedule: Q04DX003 (ip), vehicle: saline", "value": "0 of 6"}]}
{"smiles": "Cc1ccc([P+](Cc2ccccc2)(c2ccccc2)c2cccc3ccccc23)cc1", "note": "(configuration not stated)", "values": [{"measurement": "survivor count", "setting": "T/C endpoint: mean survival time, dose: 60.0 mg/kg/injection, schedule: Q01DX001 (ip), vehicle: carboxymethylcellulose (CMC)", "value": "1 of 6"}, {"measurement": "survivor count", "setting": "T/C endpoint: mean survival time, dose: 75.0 mg/kg/injection, schedule: Q01DX001 (ip), vehicle: carboxymethylcellulose (CMC)", "value": "0 of 6"}, {"measurement": "survivor count", "setting": "T/C endpoint: mean survival time, dose: 150.0 mg/kg/injection, schedule: Q01DX001 (ip), vehicle: carboxymethylcellulose (CMC)", "value": "0 of 6"}, {"measurement": "survivor count", "setting": "T/C endpoint: mean survival time, dose: 300.0 mg/kg/injection, schedule: Q01DX001 (ip), vehicle: carboxymethylcellulose (CMC)", "value": "0 of 6"}]}
{"smiles": "CC(CCCOS(C)(=O)=O)OS(C)(=O)=O", "note": "(configuration not stated)", "values": [{"measurement": "survivor count", "setting": "T/C endpoint: mean survival time, dose: 100.0 mg/kg/injection, schedule: Q04DX002 (ip), vehicle: Klucel (hydroxypropylcellulose) (HPC)", "value": "3 of 3"}, {"measurement": "survivor count", "setting": "T/C endpoint: mean survival time, dose: 200.0 mg/kg/injection, schedule: Q04DX002 (ip), vehicle: Klucel (hydroxypropylcellulose) (HPC)", "value": "1 of 3"}, {"measurement": "survivor count", "setting": "T/C endpoint: mean survival time, dose: 400.0 mg/kg/injection, schedule: Q04DX002 (ip), vehicle: Klucel (hydroxypropylcellulose) (HPC)", "value": "0 of 3"}]}
{"smiles": "N#CC(C#N)=NNc1cccc(Cl)c1Cl", "values": [{"measurement": "survivor count", "setting": "T/C endpoint: mean survival time, dose: 20.0 mg/kg/injection, schedule: Q01DX009 (ip), vehicle: saline with Tween-80", "value": "3 of 6"}, {"measurement": "survivor count", "setting": "T/C endpoint: mean survival time, dose: 100.0 mg/kg/injection, schedule: Q04DX003 (ip), vehicle: saline with Tween-80", "value": "0 of 6"}, {"measurement": "survivor count", "setting": "T/C endpoint: mean survival time, dose: 200.0 mg/kg/injection, schedule: Q04DX003 (ip), vehicle: saline with Tween-80", "value": "0 of 6"}, {"measurement": "survivor count", "setting": "[1]", "value": "0 of 6"}]}
{"smiles": "CS/C(N)=N\\N=C\\c1ccccn1", "values": [{"measurement": "survivor count", "setting": "T/C endpoint: mean survival time, dose: 50.0 mg/kg/injection, schedule: Q01DX001 (ip), vehicle: carboxymethylcellulose (CMC)", "value": "1 of 6"}, {"measurement": "survivor count", "setting": "T/C endpoint: mean survival time, dose: 100.0 mg/kg/injection, schedule: Q01DX001 (ip), vehicle: carboxymethylcellulose (CMC)", "value": "1 of 6"}, {"measurement": "survivor count", "setting": "T/C endpoint: mean survival time, dose: 200.0 mg/kg/injection, schedule: Q01DX001 (ip), vehicle: carboxymethylcellulose (CMC)", "value": "0 of 6"}, {"measurement": "survivor count", "setting": "T/C endpoint: mean survival time, dose: 400.0 mg/kg/injection, schedule: Q01DX001 (ip), vehicle: carboxymethylcellulose (CMC)", "value": "0 of 6"}]}
{"smiles": "CC1(C)N=C(N)N=C(N)N1c1cc(Cl)cc(CCCCc2ccc(S(=O)(=O)F)cc2)c1", "values": [{"measurement": "survivor count", "setting": "T/C endpoint: mean survival time, dose: 200.0 mg/kg/injection, schedule: Q04DX003 (ip), vehicle: Klucel (hydroxypropylcellulose) (HPC)", "value": "5 of 6"}, {"measurement": "survivor count", "setting": "T/C endpoint: mean survival time, dose: 400.0 mg/kg/injection, schedule: Q04DX003 (ip), vehicle: Klucel (hydroxypropylcellulose) (HPC)", "value": "1 of 6"}]}
{"smiles": "O=[N+]([O-])c1ncc[nH]1", "values": [{"measurement": "survivor count", "setting": "T/C endpoint: mean survival time, dose: 400.0 mg/kg/injection, schedule: Q01DX001 (ip), vehicle: saline", "value": "0 of 4"}]}
{"smiles": "COc1ccc(C(=O)/C=C/c2ccccc2Cl)cc1", "values": [{"measurement": "survivor count", "setting": "[1]", "value": "0 of 3"}]}
